According to PubChem BioAssay AID588590 (National Center for Advancing Translational Sciences (NCATS), 2011):
In all, about 390,000 compounds went through this assay and about 4,000 (1%) were called active. The shares of active, inactive and inconclusive entries below differ from those in the screen. The call rests on the fitted dose curve; in most records, active means well fitted inhibition curve with a large enough effect; inconclusive means small, poorly fitted or top-dose-only effect, or another doubt; inactive means no such curve, though single readings can be large or run the other way. A potency beside an inconclusive call is a rough fit, not a confirmed value.

Sequences of proteins named here, by UniProt entry; tags and fusion partners are left off. A change or cut given only in a name is not applied to a line headed by its entry.
UniProt Q9UNA4: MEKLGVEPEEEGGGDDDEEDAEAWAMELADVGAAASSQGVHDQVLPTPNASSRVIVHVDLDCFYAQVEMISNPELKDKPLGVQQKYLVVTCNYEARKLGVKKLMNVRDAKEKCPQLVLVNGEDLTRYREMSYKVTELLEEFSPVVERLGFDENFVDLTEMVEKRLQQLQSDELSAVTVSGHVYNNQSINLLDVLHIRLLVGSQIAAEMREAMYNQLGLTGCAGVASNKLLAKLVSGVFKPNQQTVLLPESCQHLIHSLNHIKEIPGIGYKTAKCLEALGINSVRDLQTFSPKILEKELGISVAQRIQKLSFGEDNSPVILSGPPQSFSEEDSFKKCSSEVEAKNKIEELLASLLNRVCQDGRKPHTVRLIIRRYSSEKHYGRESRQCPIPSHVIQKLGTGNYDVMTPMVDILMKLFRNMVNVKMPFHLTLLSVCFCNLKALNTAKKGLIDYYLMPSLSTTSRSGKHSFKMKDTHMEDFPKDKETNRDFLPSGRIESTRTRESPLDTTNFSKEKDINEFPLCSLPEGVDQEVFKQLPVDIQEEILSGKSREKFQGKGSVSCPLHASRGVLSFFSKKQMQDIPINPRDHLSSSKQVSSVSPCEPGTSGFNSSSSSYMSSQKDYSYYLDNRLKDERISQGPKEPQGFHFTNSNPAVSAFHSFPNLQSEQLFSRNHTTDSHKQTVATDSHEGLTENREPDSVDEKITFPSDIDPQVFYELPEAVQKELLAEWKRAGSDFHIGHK

molecular target: DNA polymerase iota (Homo sapiens) (UniProt Q9UNA4); assay: qHTS for Inhibitors of Polymerase Iota; details: Pol iota fluorescent replication assay, 10 min; series mostly up to 115 µM
How it was run: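 Pol iota at 10 nM preincubated 15 min with compounds at room temperature; reaction started with fluorescent substrate, 50 nM final. Fluorescence read kinetically at 0 and 10 min; buffer-only wells as negative control.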
Potency means the concentration at half of the fitted maximal effect.

Potency, inconclusive:
O=C(COC(=O)c1ccc(S(=O)(=O)NCc2ccco2)cc1)NCc1ccccc1 14.1 µM [inhibitor, full curve, poor fit], Cc1nc2ccn(Cc3ccco3)c(=O)c2cc1C(=O)N1CCN(c2ccccc2)CC1 44.7 µM [inhibitor, single point], C#CCOCCOCCOCCNc1nc(N2CCN(C(=O)CCCCCCCCCCNC(=O)[C@H](CCCCN)n3cc(CCO)nn3)CC2)nc(N2CCN(C(=O)CCCCCCCCCCNC(=O)[C@@H]([C@H](C)O)n3cc(C)nn3)CC2)n1 14.1 µM [inhibitor, full curve], Cc1cc(NC(=O)CSCC(=O)NC(C)c2ccccc2)no1 (stereo not given) 10 µM [inhibitor, partial curve, poor fit], Cc1ccn2c(=O)nc(SCC(=O)N3CCCCC3)nc2c1 25.1 µM [inhibitor, partial curve, poor fit], CC(C)Nc1ncnc2c1cnn2Cc1ccccc1Cl 14.1 µM [inhibitor, partial curve, poor fit], Cc1cnn(C(=S)NCc2ccc(Cl)cc2)c1 39.8 µM [inhibitor, partial curve, poor fit], CN(CCc1ccccn1)S(=O)(=O)c1ccccc1F 22.4 µM [inhibitor, single point], CC(C(=O)NCC1(c2ccccc2)CCCC1)N1CCCC1 (stereo not given) 100 µM [inhibitor, partial curve, poor fit], Cc1ccc(Cl)cc1-n1ncc2c(Nc3cccc(C)c3C)ncnc21 89.1 µM [inhibitor, single point], COc1ccc(/C=N/n2c(-c3ccccc3)n[nH]c2=S)cc1 79.4 µM [inhibitor, partial curve], O=C(OCn1ncc(Br)c(Br)c1=O)c1ccccc1Cl 2.51 µM [inhibitor, full curve, poor fit], CC(C)n1c(CNC(=O)c2ccccc2F)nnc1SCC(=O)NC1CCCCC1 56.2 µM [inhibitor, partial curve, poor fit], O=C(c1sc(N2CCOCC2)nc1-c1ccccc1)N1CCCCC1 79.4 µM [inhibitor, partial curve, poor fit], O=C1C2=C(NC(=S)NC2c2ccc(Cl)cc2)NC(c2ccc(Cl)cc2)N1c1ccc(Cl)cc1 (stereo not given) 31.6 µM [inhibitor, single point], CC(=O)Oc1cc2oc(=O)cc(C)c2cc1OC(C)=O 20 µM [inhibitor, partial curve, poor fit], CC(=O)N=c1c(C#N)cc2c(=O)n3ccccc3nc2n1Cc1ccccc1 39.8 µM [inhibitor, single point], O=C(COc1ccccc1)Nc1cccc(-c2cn3cccnc3n2)c1 39.8 µM [inhibitor, partial curve, poor fit], O=C(NC1=NCCS1)C1Cc2ccccc2CN1C(=O)c1ccccc1 (stereo not given) 35.5 µM [inhibitor, single point], Cc1ncc([N+](=O)[O-])n1CC(=O)Nc1ccc(OC(F)(F)Cl)cc1 2.82 µM [inhibitor, full curve, poor fit], O=C(NCCSc1ccccc1)c1ccco1 79.4 µM [inhibitor, single point], CCOC(=O)C1=C(N)N(c2ccccc2)C(=O)C1 89.1 µM [inhibitor, single point], N#Cc1cccc(NC(=O)c2cc3c(s2)-c2ccc(Cl)cc2SC3)c1 5.01 µM [inhibitor, full curve, poor fit], Cc1ccnc(NC(=O)C23CC4CC(CC(C4)C2)C3)c1 79.4 µM [inhibitor, single point], Cc1noc(NS(=O)(=O)c2ccc(N/C=C/C(=O)c3ccncc3)cc2)c1C 79.4 µM [inhibitor, partial curve, poor fit], Cc1nc2ccccc2c2nc3ccccc3n12 12.6 µM [inhibitor, full curve, poor fit], COC(=O)C1CCN(C(=O)COC(=O)CNC(=O)c2ccc(Cl)cc2Cl)CC1 70.8 µM [inhibitor, partial curve, poor fit], O=C(CC(C(=O)O)C1CCCO1)NCc1ccccc1 (stereo not given) 31.6 µM [inhibitor, single point], Cc1nc(Nc2cccc(C(C)O)c2)c2nnn(Cc3ccc(F)cc3)c2n1 (stereo not given) 79.4 µM [inhibitor, partial curve], CN1CCC[C@@H]1CCNC(=O)c1cccc2c1C(=O)c1ccc(N3CCCC3)cc1S2(=O)=O 39.8 µM [inhibitor, full curve], CC(C)CCN1C(N(C)C)=NC[C@@H]1C 39.8 µM [inhibitor, single point], Cc1ccccc1Cn1cccc1/C=C1/C(=N)N2C=CSC2=NC1=O 14.1 µM [inhibitor, partial curve, poor fit]

Potency, active:
CC(=O)Nc1sc2c(c1-c1nc3ccccc3s1)CN(C(C)C)CC2 12.6 µM, O=C(O)CSc1cc(NS(=O)(=O)c2ccc(Cl)cc2)c2ccccc2c1O 3.16 µM

Potency, inactive:
Cc1nc(C)c(-c2csc(Nc3ccc(C(=O)O)c(O)c3)n2)s1, O=C(Nc1ccccc1N1CCOCC1)C1Cc2ccccc2CN1C(=O)c1ccco1 (stereo not given), Cc1ccc(NC(=O)C(=O)Nc2ccc(C)cn2)nc1, COc1cc2c(cc1OC)CN(C(=O)CN1CCN(S(=O)(=O)c3ccccc3Br)CC1)CC2, O=C(O)CCCC(=O)Nc1ccc(Cl)c(Cl)c1, Cc1ccc(C(=O)NCC(=O)OCC(=O)N2CC(C)OC(C)C2)cc1 (stereo not given)
